From publication PMC10336005, “Architectural basis for cylindrical self-assembly governing Plk4-mediated centriole duplication in human cells” (Communications Biology, 2023)
Results are given in words; binding and its absence hold for the method and conditions named. For some of these results: Binding seen in cells or lysates may run through a third protein. Some entries that bind do so weakly or less than the wild type. For some of these results: Sequences can lack the tags named with a protein.

Protein sequences, listed by entry. Tags and fused reporters are not part of them. Lines headed by an entry give the natural chain unless they say otherwise; changes in a name come on top. Chains listed by the source or under a name are the forms on record and can include a tag or linker.
mGFP-Cep152 WT (O94986, form named): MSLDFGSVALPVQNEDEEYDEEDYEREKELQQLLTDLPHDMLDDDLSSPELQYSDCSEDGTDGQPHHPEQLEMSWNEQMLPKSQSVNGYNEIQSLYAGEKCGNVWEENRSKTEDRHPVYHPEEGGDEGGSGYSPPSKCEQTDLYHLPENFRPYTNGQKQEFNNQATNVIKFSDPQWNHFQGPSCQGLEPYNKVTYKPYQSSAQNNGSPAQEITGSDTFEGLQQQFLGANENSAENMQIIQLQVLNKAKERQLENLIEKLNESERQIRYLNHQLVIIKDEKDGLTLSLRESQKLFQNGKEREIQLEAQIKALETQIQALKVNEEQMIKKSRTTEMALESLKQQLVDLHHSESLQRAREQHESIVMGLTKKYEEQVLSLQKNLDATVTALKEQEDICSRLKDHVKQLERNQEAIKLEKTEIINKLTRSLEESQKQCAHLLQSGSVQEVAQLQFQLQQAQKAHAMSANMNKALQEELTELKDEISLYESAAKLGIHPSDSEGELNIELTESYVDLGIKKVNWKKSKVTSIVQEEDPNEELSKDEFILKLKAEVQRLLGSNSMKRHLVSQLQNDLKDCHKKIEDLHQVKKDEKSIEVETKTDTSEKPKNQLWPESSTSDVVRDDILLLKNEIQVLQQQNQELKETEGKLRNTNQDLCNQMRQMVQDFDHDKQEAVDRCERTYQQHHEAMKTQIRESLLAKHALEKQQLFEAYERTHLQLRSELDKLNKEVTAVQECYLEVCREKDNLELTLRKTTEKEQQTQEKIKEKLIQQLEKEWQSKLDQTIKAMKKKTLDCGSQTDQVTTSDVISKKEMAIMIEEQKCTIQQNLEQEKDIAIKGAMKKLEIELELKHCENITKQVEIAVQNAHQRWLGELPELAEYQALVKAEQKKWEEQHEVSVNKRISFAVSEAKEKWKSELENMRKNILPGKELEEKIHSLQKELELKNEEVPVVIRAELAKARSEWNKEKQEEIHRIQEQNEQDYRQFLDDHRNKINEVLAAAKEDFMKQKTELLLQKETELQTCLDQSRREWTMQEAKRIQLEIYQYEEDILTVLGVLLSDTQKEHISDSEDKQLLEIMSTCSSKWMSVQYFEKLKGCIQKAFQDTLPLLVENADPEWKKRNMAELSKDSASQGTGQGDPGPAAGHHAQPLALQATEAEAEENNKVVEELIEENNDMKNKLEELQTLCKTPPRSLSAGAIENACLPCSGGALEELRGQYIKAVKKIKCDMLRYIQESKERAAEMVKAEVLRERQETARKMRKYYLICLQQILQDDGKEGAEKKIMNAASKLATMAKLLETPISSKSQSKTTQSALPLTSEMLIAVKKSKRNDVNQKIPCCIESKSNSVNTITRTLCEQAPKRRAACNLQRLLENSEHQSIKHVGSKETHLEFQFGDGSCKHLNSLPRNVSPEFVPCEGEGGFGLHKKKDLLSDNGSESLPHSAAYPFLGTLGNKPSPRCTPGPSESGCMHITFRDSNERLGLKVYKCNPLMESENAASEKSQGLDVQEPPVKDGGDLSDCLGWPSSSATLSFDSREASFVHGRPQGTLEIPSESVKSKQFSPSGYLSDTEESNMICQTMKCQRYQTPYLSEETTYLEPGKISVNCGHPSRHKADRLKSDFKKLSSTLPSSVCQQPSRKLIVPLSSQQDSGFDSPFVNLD
mGFP-Cep152∆(1273–1295) (O94986, form named): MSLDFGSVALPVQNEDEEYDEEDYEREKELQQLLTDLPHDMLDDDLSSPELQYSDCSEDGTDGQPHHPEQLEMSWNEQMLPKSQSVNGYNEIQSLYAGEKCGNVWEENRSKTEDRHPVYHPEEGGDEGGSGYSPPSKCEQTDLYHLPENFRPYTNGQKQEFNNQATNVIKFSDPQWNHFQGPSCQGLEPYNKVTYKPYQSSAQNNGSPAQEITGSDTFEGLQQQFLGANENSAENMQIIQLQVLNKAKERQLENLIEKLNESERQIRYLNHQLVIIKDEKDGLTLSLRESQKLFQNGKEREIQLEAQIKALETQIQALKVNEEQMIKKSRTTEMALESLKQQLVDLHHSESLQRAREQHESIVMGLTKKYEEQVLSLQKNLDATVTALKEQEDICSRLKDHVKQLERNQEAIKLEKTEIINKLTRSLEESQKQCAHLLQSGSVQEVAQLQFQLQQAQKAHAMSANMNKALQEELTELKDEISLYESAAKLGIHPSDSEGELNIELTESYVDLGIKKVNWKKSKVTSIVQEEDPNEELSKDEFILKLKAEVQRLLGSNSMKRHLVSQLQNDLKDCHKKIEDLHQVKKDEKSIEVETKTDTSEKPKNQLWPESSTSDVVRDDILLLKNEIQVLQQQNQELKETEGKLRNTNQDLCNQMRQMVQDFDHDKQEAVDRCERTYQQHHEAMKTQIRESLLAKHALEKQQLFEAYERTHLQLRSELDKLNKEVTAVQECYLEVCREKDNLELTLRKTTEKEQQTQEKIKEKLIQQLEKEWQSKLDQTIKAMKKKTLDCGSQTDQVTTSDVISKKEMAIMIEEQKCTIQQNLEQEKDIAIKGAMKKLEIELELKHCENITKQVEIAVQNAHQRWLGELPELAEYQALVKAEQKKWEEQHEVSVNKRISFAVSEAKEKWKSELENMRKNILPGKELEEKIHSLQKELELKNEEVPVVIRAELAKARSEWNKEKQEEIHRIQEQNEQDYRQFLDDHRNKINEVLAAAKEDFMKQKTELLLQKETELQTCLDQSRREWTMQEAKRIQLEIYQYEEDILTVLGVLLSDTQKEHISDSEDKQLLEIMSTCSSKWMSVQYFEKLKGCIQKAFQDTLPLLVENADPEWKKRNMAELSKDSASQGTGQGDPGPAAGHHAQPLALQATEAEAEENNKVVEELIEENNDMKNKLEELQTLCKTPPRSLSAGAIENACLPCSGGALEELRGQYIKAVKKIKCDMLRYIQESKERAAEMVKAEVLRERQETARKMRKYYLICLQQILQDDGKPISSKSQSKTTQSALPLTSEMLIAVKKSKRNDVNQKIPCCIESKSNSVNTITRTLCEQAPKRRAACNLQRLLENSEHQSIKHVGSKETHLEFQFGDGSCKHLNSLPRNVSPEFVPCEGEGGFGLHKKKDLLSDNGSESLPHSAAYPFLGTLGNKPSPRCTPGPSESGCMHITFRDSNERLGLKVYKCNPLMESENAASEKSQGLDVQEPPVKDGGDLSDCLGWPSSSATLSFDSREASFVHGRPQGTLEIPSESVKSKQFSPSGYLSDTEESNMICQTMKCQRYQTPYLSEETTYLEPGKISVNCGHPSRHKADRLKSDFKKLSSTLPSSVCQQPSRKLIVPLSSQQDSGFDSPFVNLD
mGFP-Cep152 (I1279D, L1286D) (O94986, form named): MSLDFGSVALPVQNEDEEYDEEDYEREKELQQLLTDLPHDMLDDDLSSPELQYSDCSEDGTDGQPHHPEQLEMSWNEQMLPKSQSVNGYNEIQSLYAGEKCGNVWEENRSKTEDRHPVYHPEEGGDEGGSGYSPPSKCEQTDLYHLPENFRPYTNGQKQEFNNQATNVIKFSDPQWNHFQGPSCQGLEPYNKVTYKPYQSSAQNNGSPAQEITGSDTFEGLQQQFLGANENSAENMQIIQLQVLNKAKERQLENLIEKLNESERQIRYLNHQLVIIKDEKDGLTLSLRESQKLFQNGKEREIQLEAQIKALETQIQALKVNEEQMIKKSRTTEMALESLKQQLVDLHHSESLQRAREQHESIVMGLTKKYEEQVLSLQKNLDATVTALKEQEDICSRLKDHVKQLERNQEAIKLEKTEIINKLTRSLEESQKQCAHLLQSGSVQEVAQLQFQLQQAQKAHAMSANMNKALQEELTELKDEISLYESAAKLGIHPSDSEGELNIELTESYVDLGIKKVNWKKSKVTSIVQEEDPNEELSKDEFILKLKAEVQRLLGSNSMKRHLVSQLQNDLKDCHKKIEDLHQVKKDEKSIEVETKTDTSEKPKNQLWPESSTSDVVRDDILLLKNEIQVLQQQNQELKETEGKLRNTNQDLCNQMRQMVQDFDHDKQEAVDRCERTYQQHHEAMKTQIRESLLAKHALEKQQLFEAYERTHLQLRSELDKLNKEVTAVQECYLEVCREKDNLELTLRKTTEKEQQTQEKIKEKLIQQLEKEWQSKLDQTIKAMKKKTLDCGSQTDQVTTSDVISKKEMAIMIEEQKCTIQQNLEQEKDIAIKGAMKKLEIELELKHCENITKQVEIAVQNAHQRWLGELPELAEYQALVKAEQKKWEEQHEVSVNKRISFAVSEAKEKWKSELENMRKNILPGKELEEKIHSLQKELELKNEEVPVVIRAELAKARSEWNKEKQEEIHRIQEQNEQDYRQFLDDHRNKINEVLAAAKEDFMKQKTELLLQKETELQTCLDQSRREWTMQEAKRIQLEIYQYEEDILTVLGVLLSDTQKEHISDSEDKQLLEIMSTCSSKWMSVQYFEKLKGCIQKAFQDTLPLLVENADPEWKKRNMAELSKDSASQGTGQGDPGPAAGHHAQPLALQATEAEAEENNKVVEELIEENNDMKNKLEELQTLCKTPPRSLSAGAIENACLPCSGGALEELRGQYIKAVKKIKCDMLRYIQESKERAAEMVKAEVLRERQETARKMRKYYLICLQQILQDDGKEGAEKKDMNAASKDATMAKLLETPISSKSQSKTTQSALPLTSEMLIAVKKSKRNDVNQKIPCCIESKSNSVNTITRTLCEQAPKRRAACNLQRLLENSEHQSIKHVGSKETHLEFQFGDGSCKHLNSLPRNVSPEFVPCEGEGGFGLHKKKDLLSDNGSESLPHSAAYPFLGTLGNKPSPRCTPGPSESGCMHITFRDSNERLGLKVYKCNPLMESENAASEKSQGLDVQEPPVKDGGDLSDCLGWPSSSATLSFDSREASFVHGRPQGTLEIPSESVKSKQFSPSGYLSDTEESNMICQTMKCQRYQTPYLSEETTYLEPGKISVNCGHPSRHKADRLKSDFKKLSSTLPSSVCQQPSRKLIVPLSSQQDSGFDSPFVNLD

B1: FLAG-Plk4 (enzyme, UniProt O00444 1-970)
chain: MATCIGEKIEDFKVGNLLGKGSFAGVYRAESIHTGLEVAIKMIDKKAMYKAGMVQRVQNEVKIHCQLKHPSILELYNYFEDSNYVYLVLEMCHNGEMNRYLKNRVKPFSENEARHFMHQIITGMLYLHSHGILHRDLTLSNLLLTRNMNIKIADFGLATQLKMPHEKHYTLCGTPNYISPEIATRSAHGLESDVWSLGCMFYTLLIGRPPFDTDTVKNTLNKVVLADYEMPSFLSIEAKDLIHQLLRRNPADRLSLSSVLDHPFMSRNSSTKSKDLGTVEDSIDSGHATISTAITASSSTSISGSLFDKRRLLIGQPLPNKMTVFPKNKSSTDFSSSGDGNSFYTQWGNQETSNSGRGRVIQDAEERPHSRYLRRAYSSDRSGTSNSQSQAKTYTMERCHSAEMLSVSKRSGGGENEERYSPTDNNANIFNFFKEKTSSSSGSFERPDNNQALSNHLCPGKTPFPFADPTPQTETVQQWFGNLQINAHLRKTTEYDSISPNRDFQGHPDLQKDTSKNAWTDTKVKKNSDASDNAHSVKQQNTMKYMTALHSKPEIIQQECVFGSDPLSEQSKTRGMEPPWGYQNRTLRSITSPLVAHRLKPIRQKTKKAVVSILDSEEVCVELVKEYASQEYVKEVLQISSDGNTITIYYPNGGRGFPLADRPPSPTDNISRYSFDNLPEKYWRKYQYASRFVQLVRSKSPKITYFTRYAKCILMENSPGADFEVWFYDGVKIHKTEDFIQVIEKTGKSYTLKSESEVNSLKEEIKMYMDHANEGHRICLALESIISEEERKTRSAPFFPIIIGRKPGSTSSPKALSPPPSVDSNYPTRERASFNRMVMHSAASPTQAPILNPSMVTNEGLGLTTTASGTDISSNSLKDCLPKSAQLLKSVFVKNVGWATQLTSGAVWVQFNDGSQLVVQAGVSSISYTSPNGQTTRYGENEKLPDYIKQKLQCLSSILLMFSNPTPNFH
B2: Cep63 (440–490) (L469A, N473R, V480K) (domain or fragment, UniProt Q96MT8 440-490)
chain: DMEKRLRAEMQKAEDKAVEHKEILDQLESAKLERRHLSEMKMKLELGLHEA

Key:
[1] = biological target: mGFP-Cep152 WT (human) (UniProt O94986); assay: co-IP; lysates of transfected cells in TBSN buffer (20 mM Tris-HCl pH 8.0, 100 mM NaCl, 0.5% Nonidet P-40, 5 mM EGTA, 1.5 mM EDTA); anti-GFP antibody and protein A-agarose; immunoblot
[2] = biological target: mGFP-Cep152∆(1273–1295) (human) (UniProt O94986); assay: as above
[3] = biological target: mGFP-Cep152 (I1279D, L1286D) (human) (UniProt O94986); assay: as above
[4] = biological target: Cep63 (440–490) (L469A, N473R, V480K) (human) (UniProt Q96MT8); assay: SEC; SEC elution of Cep63 (440–490) triple mutants (Supplementary Fig. 3d); both purified

| Binder | binding [1] | binding [2] | binding [3] | binding [4] |
| --- | --- | --- | --- | --- |
| B1 | binds | binds | binds |  |
| B2 |  |  |  | no binding |
